The text below walks through data of the supplement of paper PMC12542422.

In test [1] the test system is HeLa K (ENP1 immunofluorescence, +LMB). Description: fraction of cells with nucleolar or nucleolar/nucleoplasmic ENP1 signal (MainHitrate); higher = more cells with nucleolar/nuclear readout signal (for ENP1 -LMB: less RNAPI inhibition; for +LMB ENP1 and RP reporters: stronger nuclear/nucleolar retention, i.e. ribosome biogenesis defect). To be noted: concentration: 1 µM; treatment time: 6 h; ENP1 +LMB; leptomycin B: 20 nM, last 1.5 h.

Test [2] has as its system HeLa K (ENP1 immunofluorescence, no LMB). The description is as above. Conditions: concentration: 1 µM; treatment time: 6 h; ENP1 -LMB; leptomycin B: none.
Test [3] deals with HeLa RPS2-YFP reporter. Nature of the test: fraction of reporter-positive cells with nuclear (nucleolar or nucleolar/nucleoplasmic) RPS2-YFP (MainHitrate); higher = more cells with nucleolar/nuclear readout signal (for ENP1 -LMB: less RNAPI inhibition; for +LMB ENP1 and RP reporters: stronger nuclear/nucleolar retention, i.e. ribosome biogenesis defect). To be noted: concentration: 1 µM; treatment time: 6 h.

In test [4] the test system is HeLa RPL29-GFP reporter. Nature of the test: fraction of reporter-positive cells with nuclear (nucleolar or nucleolar/nucleoplasmic) RPL29-GFP (MainHitrate); higher = more cells with nucleolar/nuclear readout signal (for ENP1 -LMB: less RNAPI inhibition; for +LMB ENP1 and RP reporters: stronger nuclear/nucleolar retention, i.e. ribosome biogenesis defect). Conditions: concentration: 1 µM; treatment time: 6 h.

Structures are written as SMILES. Counter-ions that a name gives are not always drawn. ± gives the standard deviation of the averaged measurements. Some of the results follow. Values are raw readings; no control value is given beside them.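 HeLa cells imaged for ribosome-assembly readouts (ENP1 staining with or without export block, or inducible tagged ribosomal protein reporters); machine learning classified each cell's signal location against solvent (DMSO) controls. Hits exceeded the DMSO false-positive mean by five standard deviations, then were visually confirmed; three biological replicates.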

With `Cc1cc(=O)[nH]c(=S)[nH]1` [Methylthiouracil], the fraction is 0.0872 ± 0.12 in test [1] and 0.989 ± 0.018 in test [2]. The “fraction of reporter-positive cells with nuclear” value (from here on “fraction … with nuclear”) in test [3] was 0.0946 ± 0.086; in test [4], 0.234 ± 0.074.
On the same counts, the results for `O=C(O)c1ccccc1` [Benzoic acid] are 0.0347 ± 0.038, 0.986 ± 0.024, 0.118 ± 0.072 and 0.193 ± 0.026.
Turning to `C[C@@H](O)[C@H]1C(=O)N2C(C(=O)OCOC(=O)C(C)(C)C)=C(SC3CN(C4=NCCS4)C3)[C@H](C)[C@H]12` [Tebipenem pivoxil (L-084)], the fraction in test [1] is 0.13 ± 0.18; in test [2], 0.9949 ± 0.0088. In addition, the “fraction … with nuclear” value in test [3] came out at 0.0953 ± 0.027; in test [4] it was 0.217 ± 0.056.
On the same counts, the results for `N=C(N)NS(=O)(=O)c1ccc(N)cc1` [Sulfaguanidine] are 0.0915 ± 0.12, 0.986 ± 0.024, 0.111 ± 0.078 and 0.213 ± 0.068.
Taken in the same sequence, the figures for `Cc1ccc(C(=O)c2ccc(CC(=O)O)n2C)cc1` [Tolmetin Sodium] were 0.155 ± 0.18, 0.9969 ± 0.0054, 0.178 ± 0.18 and 0.295 ± 0.24.
On the same counts, the results for `CCC1(c2ccccc2)C(=O)NCNC1=O` [Primidone (Mysoline)] are 0.103 ± 0.15, 0.9943 ± 0.0099, 0.0575 ± 0.013 and 0.249 ± 0.074.
Take `C=C1/C(=C\C=C2/CCC[C@]3(C)[C@@H]([C@H](C)CCCC(C)C)CC[C@@H]23)C[C@@H](O)C[C@@H]1O` [Alfacalcidol]: the fraction in test [1] stood at 0.0478 ± 0.024; in test [2], 0.9986 ± 0.0024. Besides, the “fraction … with nuclear” value in test [3] was found to be 0.0984 ± 0.07; in test [4], 0.212 ± 0.044.
Turning to `Nc1ccc(S(=O)(=O)Nc2ncccn2)cc1` [Sulfadiazine], the fraction turned out to be 0.114 ± 0.14 in test [1] and 0.9989 ± 0.002 in test [2]. In addition, the “fraction … with nuclear” value in test [3] came to 0.123 ± 0.08; in test [4] it was 0.194 ± 0.079.
On the same counts, the results for `Nc1nc2n[nH]nc2c(=O)[nH]1` [Azaguanine-8] are 0.0973 ± 0.14, 0.989 ± 0.019, 0.109 ± 0.084 and 0.2 ± 0.077.
Taken in the same sequence, the figures for `NNc1nncc2ccccc12` [Hydralazine hydrochloride] were 0.102 ± 0.15, 0.9946 ± 0.0093, 0.129 ± 0.089 and 0.229 ± 0.084.
On the same counts, the results for `O=C(CCCN1CC=C(n2c(=O)[nH]c3ccccc32)CC1)c1ccc(F)cc1` [Droperidol] are 0.064 ± 0.072, 0.989 ± 0.02, 0.14 ± 0.079 and 0.212 ± 0.048.
In the case of `CCCCc1nc(Cl)c(CO)n1Cc1ccc(-c2ccccc2-c2nnn[nH]2)cc1` [Losartan potassium], the fraction in test [1] is 0.133 ± 0.15; in test [2], 0.9979 ± 0.0036. For the same compound, the “fraction … with nuclear” value was 0.0986 ± 0.051 in test [3] and 0.171 ± 0.079 in test [4].
In the case of `Cc1cc(=O)n(-c2ccccc2)n1C` [Antipyrine], the fraction was 0.0782 ± 0.095 in test [1] and 0.983 ± 0.029 in test [2]. Further, the entries for the “fraction … with nuclear” value in test [3] and in test [4] were 0.115 ± 0.097 and 0.214 ± 0.086, respectively.
Taken in the same sequence, the figures for `CN(C/C=C/c1ccccc1)Cc1cccc2ccccc12` [Naftifine HCl] were 0.0435 ± 0.055, 0.979 ± 0.037, 0.131 ± 0.087 and 0.209 ± 0.067.
On the same counts, the results for `N=C(N)NC(=O)c1nc(Cl)c(N)nc1N` [Amiloride hydrochloride (Midamor)] are 0.0718 ± 0.095, 0.993 ± 0.013, 0.136 ± 0.11 and 0.228 ± 0.13.
On the same counts, the results for `C=C1[C@H](CO)[C@@H](O)C[C@@H]1n1cnc2c(=O)[nH]c(N)nc21` [Entecavir hydrate] are 0.0821 ± 0.11, 0.998 ± 0.0036, 0.105 ± 0.068 and 0.203 ± 0.067.
On to `C[N+](C)(C)CCO.[Cl-]` [Choline Chloride], for which the fraction in test [1] was 0.0656 ± 0.069; in test [2], 0.977 ± 0.041. In addition, the “fraction … with nuclear” value worked out at 0.117 ± 0.082 in test [3] and 0.232 ± 0.053 in test [4].
Taken in the same sequence, the figures for `CCCCOc1ccc(OCCCN2CCOCC2)cc1` [Pramoxine HCl] were 0.089 ± 0.12, 0.984 ± 0.027, 0.127 ± 0.11 and 0.203 ± 0.065.
Taken in the same sequence, the figures for `Nc1nc(=O)c2c([nH]1)NCC(CNc1ccc(C(=O)N[C@@H](CCC(=O)O)C(=O)O)cc1)N2C=O` (some centres not stated) [Leucovorin Calcium] were 0.0946 ± 0.1, 0.9979 ± 0.0036, 0.109 ± 0.074 and 0.207 ± 0.079.
On the same counts, the results for `CC(C)(C)c1nc(-c2cccc(NS(=O)(=O)c3c(F)cccc3F)c2F)c(-c2ccnc(N)n2)s1` are 0.112 ± 0.15, 0.996 ± 0.0069, 0.144 ± 0.1 and 0.243 ± 0.12.
As to `C[C@H](Cc1cc2c(c(C(N)=O)c1)N(CCCO)CC2)NCCOc1ccccc1OCC(F)(F)F` [Silodosin (Rapaflo)], the fraction worked out at 0.0891 ± 0.056 in test [1] and 0.9981 ± 0.0032 in test [2]. The “fraction … with nuclear” value in test [3] amounted to 0.0899 ± 0.059; in test [4], 0.193 ± 0.052.
For the compound `Cc1cn([C@H]2C=C[C@@H](CO)O2)c(=O)[nH]c1=O` [Stavudine], the figures for the fraction in test [1] and in test [2] were 0.12 ± 0.14 and 0.998 ± 0.0034, respectively. In addition, the “fraction … with nuclear” value worked out at 0.106 ± 0.062 in test [3] and 0.197 ± 0.055 in test [4].
Regarding `CNC(=O)c1cc(Oc2ccc(NC(=O)Nc3ccc(Cl)c(C(F)(F)F)c3)c(F)c2)ccn1` [Regorafenib (BAY 73-4506)], the fraction in test [1] was 0.0733 ± 0.039; in test [2], 0.9983 ± 0.003. Besides, the results for the “fraction … with nuclear” value in test [3] and in test [4] were 0.0939 ± 0.093 and 0.238 ± 0.083, respectively.
On the same counts, the results for `Cc1cnc(NC(=O)C2=C(O)c3ccccc3S(=O)(=O)N2C)s1` [Meloxicam (Mobic)] are 0.0943 ± 0.1, 0.9986 ± 0.0024, 0.113 ± 0.075 and 0.213 ± 0.075.
On the same counts, the results for `COCCOC(=O)C1=C(C)NC(C)=C(C(=O)OC(C)C)C1c1cccc([N+](=O)[O-])c1` (configuration not stated) [Nimodipine (Nimotop)] are 0.0987 ± 0.097, 0.9978 ± 0.0038, 0.124 ± 0.098 and 0.22 ± 0.098.
Turning to `Clc1ccc(CCC(Cn2ccnc2)Sc2c(Cl)cccc2Cl)cc1` (configuration not stated) [Butoconazole nitrate], the fraction in test [1] is 0.0852 ± 0.12; in test [2], 0.992 ± 0.014. In addition, the “fraction … with nuclear” value in test [3] amounted to 0.103 ± 0.074; in test [4], 0.238 ± 0.069.
As for `CC(C)NCC(O)c1ccc(NS(C)(=O)=O)cc1` (configuration not stated) [Sotalol (Betapace)], the fraction came to 0.114 ± 0.14 in test [1] and 0.991 ± 0.015 in test [2]. The “fraction … with nuclear” value in test [3] amounted to 0.1 ± 0.075; in test [4] it was 0.228 ± 0.1.
`COCCc1ccc(OCC(O)CNC(C)C)cc1` (configuration not stated) [Metoprolol tartrate]: the fraction was determined as 0.0725 ± 0.092 in test [1] and 0.993 ± 0.012 in test [2]. Besides, the results for the “fraction … with nuclear” value in test [3] and in test [4] were 0.109 ± 0.066 and 0.219 ± 0.088, respectively.
